Data as given in PubChem BioAssay AID1259254 (NCATS, 2017)

Aim: 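Finding genes that stop cells copying their DNA twice in one cycle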 (primary screen)
System: human HCT116 colorectal cancer cells
Reagent: single siRNA against human genes
Timing: 3 days
Measured: 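Imaged Hoechst DNA stain sorts each cell into a cycle phase by DNA amount; per plate, G2 fraction set to 0% for non-targeting and 100% for GMNN siRNA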
Direction: G2 robust z-score and G2 cells, % of GMNN control: higher = more G2 cells, more excess DNA replication
Call rule: 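Active siRNAs have a G2 robust z of 5 or more median absolute deviations over the median, which in these data means about 38% or higher of GMNN control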
In all, the deposit lists about 59,000 reagents; shown is a part drawn at random. Of all reagents, about 1,550 (2.6%) are marked active. 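G2 share is only a proxy for re-replication; each gene was hit by three separate siRNAs, and active genes were retested.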 A number with no mark means an inactive call. The numbers tell different reagents against one gene apart. Not all columns of the deposit are shown. Not stated in the record: the amount of reagent.

The opening 8 entries, to show the layout:
| gene symbol | reagent | G2 robust z-score | G2 cells, % of GMNN control |
| --- | --- | --- | --- |
| ANKRD13D | 1 | -0.689 | -1.88 |
| ANKRD13D | 2 | -0.075 | 2.44 |
| ANKRD13D | 3 | 0.71 | 7.96 |
| C9orf163 | 1 | -0.633 | -1.48 |
| C9orf163 | 2 | 2.64 | 21.5 |
| C9orf163 | 3 | -0.322 | 0.705 |
| AP1M1 | 1 | 0.122 | 3.83 |
| AP1M1 | 2 | 2.55 | 20.9 |

The listing, from the start:
| gene symbol | reagent | G2 robust z-score | G2 cells, % of GMNN control |
| --- | --- | --- | --- |
| ANKRD13D | 1 | -0.689 | -1.88 |
| ANKRD13D | 2 | -0.075 | 2.44 |
| ANKRD13D | 3 | 0.71 | 7.96 |
| C9orf163 | 1 | -0.633 | -1.48 |
| C9orf163 | 2 | 2.64 | 21.5 |
| C9orf163 | 3 | -0.322 | 0.705 |
| AP1M1 | 1 | 0.122 | 3.83 |
| AP1M1 | 2 | 2.55 | 20.9 |
| AP1M1 | 3 | -0.58 | -1.11 |
| TBC1D2B | 1 | -1.08 | -4.6 |
| TBC1D2B | 2 | -0.415 | 0.0447 |
| TBC1D2B | 3 | -0.0823 | 2.39 |
| DNM1P49 | 1 | -0.0849 | 2.37 |
| DNM1P49 | 2 | -0.318 | 0.728 |
| DNM1P49 | 3 | 1.82 | 15.8 |
| CHML | 1 | -0.978 | -3.91 |
| CHML | 2 | 1.37 | 12.6 |
| CHML | 3 | 1.71 | 15 |
| SLC7A6OS | 1 | -0.617 | -1.37 |
| SLC7A6OS | 2 | 0.177 | 4.21 |
| SLC7A6OS | 3 | 1.94 | 16.6 |
| OR4N2 | 1 | -0.142 | 1.97 |
| OR4N2 | 2 | 0.422 | 5.94 |
| OR4N2 | 3 | 1.11 | 10.8 |
| MTR | 1 | -0.399 | 0.158 |
| MTR | 2 | 0.165 | 4.13 |
| MTR | 3 | -0.756 | -2.35 |
| PROC | 1 | -0.493 | -0.499 |
| PROC | 2 | 0.016 | 3.08 |
| PROC | 3 | -0.478 | -0.398 |
| ZNF609 | 1 | -1.53 | -7.82 |
| ZNF609 | 2 | 0.43 | 6 |
| ZNF609 | 3 | -0.906 | -3.41 |
| PLAC9P1 | 1 | -0.979 | -3.92 |
| PLAC9P1 | 2 | -0.109 | 2.2 |
| PLAC9P1 | 3 | -0.206 | 1.52 |
| GUSBP1 | 1 | -0.683 | -1.84 |
| GUSBP1 | 2 | 1.11 | 10.8 |
| GUSBP1 | 3 | 1.46 | 13.3 |
| GATA2 | 1 | 1.64 | 14.5 |
| GATA2 | 2 | -0.172 | 1.76 |
| GATA2 | 3 | 1.09 | 10.7 |
| PCAT18 | 1 | 1.67 | 14.7 |
| PCAT18 | 2 | 8.34 (active) | 61.7 |
| PCAT18 | 3 | 0.2 | 4.37 |
| ZNF585A | 1 | -0.657 | -1.66 |
| ZNF585A | 2 | 0.158 | 4.08 |
| ZNF585A | 3 | -0.198 | 1.57 |
| GET1P1 | 1 | 7.04 (active) | 52.5 |
| GET1P1 | 2 | -0.204 | 1.53 |
| GET1P1 | 3 | -0.58 | -1.11 |
| TYMSOS | 1 | 5.73 (active) | 43.3 |
| TYMSOS | 2 | -0.473 | -0.358 |
| TYMSOS | 3 | -0.292 | 0.914 |
| CT45A5 | 1 | -0.297 | 0.876 |
| CT45A5 | 2 | 1.36 | 12.6 |
| CT45A5 | 3 | 0.0417 | 3.26 |
| SERF1A | 1 | 0.0925 | 3.62 |
| SERF1A | 2 | 0.569 | 6.97 |
| SERF1A | 3 | 0.394 | 5.74 |
| SMIM21 | 1 | -1.19 | -5.38 |
| SMIM21 | 2 | -0.537 | -0.807 |
| SMIM21 | 3 | -1.09 | -4.71 |
| B3GNT5 | 1 | 0.0764 | 3.5 |
| B3GNT5 | 2 | 0.197 | 4.35 |
| B3GNT5 | 3 | 3.63 | 28.5 |
| GOLGA5 | 1 | -0.897 | -3.34 |
| GOLGA5 | 2 | 0.807 | 8.65 |
| GOLGA5 | 3 | -0.496 | -0.523 |
